Data on 1 molecule can be found in CN106046162A.

Chains of the proteins cited; added tags and fusions are not shown. Residues count along the entry.
UniProt Q15116, residues 21-167: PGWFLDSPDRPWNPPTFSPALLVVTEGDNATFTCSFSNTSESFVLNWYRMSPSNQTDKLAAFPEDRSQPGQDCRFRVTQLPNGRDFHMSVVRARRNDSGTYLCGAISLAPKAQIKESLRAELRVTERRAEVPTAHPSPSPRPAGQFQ

Results are given in words; binding and its absence hold for the method and conditions named. Some entries that bind do so weakly or less than the wild type.

For this assay, the target named is 人PD-1-Fc重组蛋白(RD) (human) (UniProt Q15116). Put plainly: ELISA. In general terms: ELISA stands for enzyme-linked immunosorbent assay.

B1: 抗人PD-1单克隆抗体2-189-H-1 (antibody, V domains shown)
VH: QVQLKESGPGLVAPSQSLSITCTVSGFSLTTYGVSWVRQPPGKGLEWLGVIWGDGSTDYHSVLISRLSITKDISKSQVFLKLNSLQSDDTATYYCAQQGSRGDYWGQGTTLTVSS
VL: DVLLTQTPLSLPVSLGDQASISCRSSQTIVHSNGITYLEWYLQKPGQSPKALISKVSNRLSGVPDRFSGSGSGTDFTLKISRVEAEDLGVYYCFQGSHIPYTFGGGTKLEIK
Turning to B1, the binding entry was “binds”.
